54 molecules from PubChem BioAssay AID1458 (National Center for Advancing Translational Sciences (NCATS), 2008) can be followed below.

Molecules are shown by their SMILES. Among all 210,000 compounds or so, about 5,900 (2.8%) were called active. Another 5% or so got no clear call; they are omitted. Calls come from the whole dose curve; as a rule, active = well fitted activation curve with a large enough effect; inconclusive = small, poorly fitted or top-dose-only effect; inactive = no such curve, though single readings can be large or run the other way. Only a part is listed here, and it is no random draw. Where no call is shown, the source filed none.
Potency is the fitted concentration of half-maximal effect.

The test in a line: qHTS Assay for Enhancers of SMN2 Splice Variant Expression. For activity change, positive = activation: % of control where 0% means no effect. Note: nearly all actives have a fitted effect of over 55% in size. Particulars: HEK293 SMN2-luciferase splicing reporter, luminescence, 30-36 h; activity change, positive = activation: at 46.1 µM (top of the series) unless noted. An excerpt: NIH Chemical Genomics Center [NCGC] NIH Molecular Libraries Probe Production centers Network [MLPCN] MLPCN Grant: R03 MH084179-01 Assay Submitter (PI): Elliot Androphy NCGC Assay Overview: Spinal muscular atrophy (SMA) is caused by insufficient levels of the survival motor neuron protein SMN. The SMN locus on chromosome 5q13 contains two inverted copies of SMN called SMN1 and SMN2 which are 99% identical at the amino acid level. SMN1 is a fully functional protein and SMN2 skips exon 7 90% of the time. Skipping of exon 7 produces non-functional protein product. 10% of the SMN2 protein includes exon 7 and is fully functional. In the SMA disease state, mutations in the SMN1 locus are the cause of the disease state. Because only 10% of SMN2 is of the fully functional form, it is not sufficient to overcome the deficiency produced by the loss of the SMN1 product. A therapy that either increase the amount of SMN2 product made or to increase the inclusion of exon 7 has been proposed for the treatment of SMA. We have designed an assay to identify small molecules that can increase the amount of functional SMN2 product by appending a luciferase reporter gene after the native SMN2 gene, such that inclusion of exon 7 in the expressed product places the luciferase sequence in frame, thus generating functional luciferase enzyme.
NCGC Assay Protocol Summary: This screen utilizes a luciferase reporter gene assay, combining the promoter and splicing based cassettes in tandem with the major portion of the native SMN2 cDNA, and then transfected into HEK293 cells. Compounds that increase luciferase signal presumably enhance expression of the functional SMN2 splice variant. Passaging media contained DMEM w/ glutamax (+phenol red) 10% FCS, 1x pen/strep, 200 ug/ml hygro, 1x sodium pyruvate. Assay media contained DMEM w/ glutamax (-phenol red) 10% FCS, 1x pen strep, 1x pyruvate Sequence, Parameter, Value, Description (1) Cells, […], 2000 cells/well, 1536 TC treated White solid bottom plate (2) Time, 10-12 hours, 37C 5% CO2 (3) Compound, 23 nl, MLSMR Library (4) Control Compound, 23 nL, Sodium butyrate st 4.5mM (final) conc (5) Time, 30-36 hours, 37C 5% CO2 (6) Reagent, 3 ul, One Glo (TM) from Promega (7) Time, 5-15 minutes, Room temp (8) Detector, Viewlux: luminescent read, 60 second integration, high speed 2x binning Keywords: Spinal muscular atrophy, SMA, SMN2, high throughput screening, MLSMR, MLPCN, NIH Roadmap, qHTS and NCGC
For the molecule `Cc1ccc(COc2cccc3c2CCN(Cc2ccc(F)cc2)C3=O)cc1`, the activity change, positive = activation was -63.8%.
As to `Cc1nn(-c2ccccc2C(=O)O)c(=O)c2ccccc12`, the activity change, positive = activation turned out to be 31%.
Same read-out and setting: under `COC(=O)CSc1nnc(-c2sc3cc(OC)ccc3c2Cl)n1C` stands 44.5%; under `COc1ccc(S(=O)(=O)Nc2ccccn2)c(C)c1C`, -38.5%; under `O=C(N=Nc1c(O)[nH]c2ccc(Br)cc12)c1cc(-c2cccs2)nc2ccccc12`, inactive: -67.7%.
Same read-out and setting: the figure for `CN(C(=O)c1ccc2c(Cl)c3c(nc2c1)CCC3)c1ccccc1` is 61.5%.
As to `CC(C)c1ccc(NC(=O)COC(=O)C2=COCCO2)cc1`, the activity change, positive = activation came to 44%.
Same read-out and setting: under `Cc1ccc(-c2nn(C(C)(C)C)c3ncnc(N)c23)cc1` stands 37.7%.
In the case of `C(=C\c1ccccc1)/CN1CCN(c2ncnc3c2oc2ccccc23)CC1`, the activity change, positive = activation was -46.4%.
Still for that read-out and setting: the figure for `CN(C=C1C(=O)CC(C)(C)CC1=O)CCN1CCNCC1` is 23.2%.
Turning to `CC(=O)OCc1cc(=O)n(C)c(=O)n1C`, the activity change, positive = activation came to 47.1%.
`Cc1cccc(-c2c3c(=O)n(C)c(=O)n(C)c3cn2C2CCCCC2)c1`: the activity change, positive = activation is -50.3%.
Same read-out and setting: the figure for `CCN=c1sc(C(=O)OC)cc(=O)n1CC` is 23.9%.
On the same count and under the same terms, the figure for `CCCC(=O)O[C@]1(C(=O)CCl)[C@@H](C)C[C@H]2[C@@H]3CCC4=CC(=O)C=C[C@]4(C)[C@@]3(F)C(=O)C[C@@]21C` is inactive: -62.9%.
Same read-out and setting: under `COc1ccc(NC(=O)/C(C#N)=C\c2cc(C)n(-c3ccc(Oc4ccc([N+](=O)[O-])cn4)cc3)c2C)cc1` stands inactive: -55.8%.
Consider `O=CN1CCC(=O)N(Cc2ccccc2)c2ccccc21`, for which the activity change, positive = activation turned out to be 40.6%.
On the same count and under the same terms, the figure for `CC(=O)c1c(C)nc2ccccn12` is 32.6%; for `O=C(CCc1nc2ccccc2c(=O)[nH]1)N1CCN(C/C=C/c2ccccc2)CC1` it is -41%; for `CCOc1ccc(C(=O)Nc2ccccc2C#N)cc1[N+](=O)[O-]` it is -41.5%.
The same measure, in the same setting: the figure for `CCc1ccccc1NC(=O)Nc1cc(F)ccc1F` is inactive: -35.4%; for `N#C/C(=C\c1ccc2c(c1)OCCO2)C(=O)NC1CCCCC1` it is 104%.
Take `CCN(CC)c1ccc2cc(-c3nnc(-c4ccncc4)o3)c(=O)oc2c1`: the Potency is active: 11.2 µM.
Regarding `CCCN1Cc2cccc(C(=O)Nc3ccc4c(c3)OCO4)c2C1=O`, the activity change, positive = activation was determined as 46.3%.
For the molecule `N#CC1=C(SCc2ccccc2)NC(=O)C(C#N)C12CCCC2` (centres undefined), the activity change, positive = activation is -117%.
Still for that read-out and setting: the figure for `CN1C(=O)CSc2ccc(NC(=O)N3CCc4ccccc43)cc21` is 42.2%; for `O=S(=O)(c1ccccc1)N1CCC2(CC1)CN(c1ccccn1)C2` it is inactive: -44.3%.
Still for that read-out and setting: under `CCCCOc1nc2ccccc2nc1C(C#N)S(=O)(=O)c1ccccc1` (centres undefined) stands -66.2%; under `O=C(CN1CCN(Cc2ccc3c(c2)OCO3)CC1)Nc1cc(S(=O)(=O)N2CCCC2)ccc1Cl`, inactive: -58%; under `FC(F)(F)c1ccccc1NC(=S)N1CCN(Cc2ccc3c(c2)OCO3)CC1`, -49.1%.
On the same count and under the same terms, under `O=C(Cc1ccccc1)N/N=C/c1ccc([N+](=O)[O-])s1` stands -59.3%; under `Cc1cc(C#N)c2ccccc2n1`, 28.8%; under `O=C(Nc1ccc(Oc2ccccc2)cc1)c1cnc2n(c1=O)CCS2`, inactive: -108%.
As for `CCOC(=O)/C(C#N)=C/c1cc(C)n(-c2ccccc2)c1C`, the “activity change, positive = activation” value is inactive: -73.4%.
Consider `CC(C)Oc1ccccc1-c1nc(SCC(=O)O)n[nH]1`, for which the activity change, positive = activation is 21.7%.
On to `O=C(CSc1nnc(-c2cccs2)o1)N1CCCCC1`, for which the Potency is active: 12.6 µM.
As to `O=S(=O)(c1ccc(Cl)c(NC(=S)N/N=C/c2ccc(O)cc2)c1)N1CCOCC1`, the “activity change, positive = activation” value is inactive: -62.8%.
On the same count and under the same terms, under `CCC(C)c1ccc2oc(-c3ccc(NC(=O)Cn4cnc5c(=O)n(C)c(=O)n(C)c54)cc3)nc2c1` (centres undefined) stands inactive: -48%; under `CNc1nc(-c2ccccn2)nnc1-c1ccccc1`, inactive: -89.5%; under `Cc1cc(C)nc(N2CCC(C(=O)NCC3CCCCC3)CC2)n1`, 5.08%.
Consider `O=C(Nc1ccc(F)c(F)c1)NC1CCCCC1`, for which the Potency was active: 4.47 µM.
With `COc1cc2ccccc2cc1C(=O)O`, the activity change, positive = activation stood at 42.2%.
The same measure, in the same setting: under `CCOc1ccccc1-n1c(SCC(N)=O)nnc1-c1cccnc1` stands 34.3%; under `Cc1ccccc1CN1CCN(C(=O)c2cccc(F)c2)CC1`, 31.4%; under `Cc1nnc(NC(=O)CCCN2C(=O)c3ccccc3C2=O)s1`, 33%.
Take `Cc1cccnc1Nc1nc(-c2ccc(O)cc2)cs1`: the Potency is active: 25.1 µM.
Turning to `COc1ccc(-c2cc(C(=O)c3c(N)n(C)c(=O)n(C)c3=O)c3ccccc3n2)cc1OC`, the activity change, positive = activation amounted to 195%.
On the same count and under the same terms, under `COc1cc(OC)cc(C(=O)NCC(=O)OCc2nc3ccccc3s2)c1` stands 135%; under `CC(C(=O)NC1CCCC1)N(C(=O)c1ccc(-c2ccccc2)[nH]1)c1ccccc1F` (centres undefined), -42.7%.
The same measure, in the same setting: the figure for `CCOc1ccc2[nH]c3c(N4CCN(c5ccccn5)CC4)ncnc3c2c1` is inactive: -38.8%.
In the case of `Cc1cc2cc(CCNC(=O)c3cccs3)c(=O)[nH]c2cc1C`, the Potency is active: 12.6 µM.
With `COc1ccc(-n2ncc3c(N4CCCCC4)ncnc32)cc1`, the “activity change, positive = activation” value was inactive: -111%.
Same read-out and setting: under `O=C(Nc1ccc(CN2CCOCC2)cc1)c1ccc(-c2ccc(Br)cc2)o1` stands inactive: -59.6%; under `O=C1Nc2ccccc2/C1=N\N=C\C1=C(N2CCOCC2)C(=C\c2ccccc2)/CC1`, -39.3%; under `CCCCC1(C)OC(=O)C(=Cc2ccc(SC)cc2)C(=O)O1` (centres undefined), 1.98%.
